Differences between knockout arms are mostly noise.
System: HCC-38
Test: relative cell number vs DMSO control (72 h) (% of DMSO); higher = less growth inhibition (more cells)
Experimental: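 QMAP-Seq: a pool of 5 breast cancer cell lines (ZR-75-1, SKBR3, HCC-38, MDA-MB-231, BT-20), each carrying 12 doxycycline-inducible Cas9 sgRNA perturbations (11 knockouts plus non-targeting sgNT), was treated with compounds for 72 h at four 10-fold doses (10 nM-10 uM or 1 nM-1 uM range). Barcodes were amplified and sequenced, and cell number was interpolated from 293T spike-in standard curves. The result is expressed as % of the median of DMSO wells. Two biological replicates.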

O=C(O)CCCc1ccc(N(CCCl)CCCl)cc1 [Chlorambucil]
Conditions	relative cell number
sgRNA knockout: sgATF3, 10 nM	99.7
sgRNA knockout: sgATF3, 100 nM	110
sgRNA knockout: sgATF3, 1000 nM	110
sgRNA knockout: sgATF3, 10000 nM	73.2
sgRNA knockout: sgATF4, 10 nM	92.2
sgRNA knockout: sgATF4, 100 nM	100
sgRNA knockout: sgATF4, 1000 nM	103
sgRNA knockout: sgATF4, 10000 nM	69.4
sgRNA knockout: sgATF6, 10 nM	97.6
sgRNA knockout: sgATF6, 100 nM	117
sgRNA knockout: sgATF6, 1000 nM	110
sgRNA knockout: sgATF6, 10000 nM	69.27
sgRNA knockout: sgATG7, 10 nM	91.6
sgRNA knockout: sgATG7, 100 nM	102
sgRNA knockout: sgATG7, 1000 nM	113
sgRNA knockout: sgATG7, 10000 nM	68.5
sgRNA knockout: sgERN1, 10 nM	91.4
sgRNA knockout: sgERN1, 100 nM	101
sgRNA knockout: sgERN1, 1000 nM	101
sgRNA knockout: sgERN1, 10000 nM	74.1
sgRNA knockout: sgHSF1, 10 nM	96.9
sgRNA knockout: sgHSF1, 100 nM	96.9
sgRNA knockout: sgHSF1, 1000 nM	107
sgRNA knockout: sgHSF1, 10000 nM	61.8
sgRNA knockout: sgHSF2, 10 nM	108.2
sgRNA knockout: sgHSF2, 100 nM	104
sgRNA knockout: sgHSF2, 1000 nM	102
sgRNA knockout: sgHSF2, 10000 nM	76.2
sgRNA knockout: sgKEAP1, 10 nM	107
sgRNA knockout: sgKEAP1, 100 nM	90.2
sgRNA knockout: sgKEAP1, 1000 nM	98.7
sgRNA knockout: sgKEAP1, 10000 nM	72.1
sgRNA knockout: sgNFE2L2, 10 nM	89
sgRNA knockout: sgNFE2L2, 100 nM	108
sgRNA knockout: sgNFE2L2, 1000 nM	106
sgRNA knockout: sgNFE2L2, 10000 nM	65.3
sgRNA knockout: sgSLC35F2, 10 nM	86.5
sgRNA knockout: sgSLC35F2, 100 nM	97.9
sgRNA knockout: sgSLC35F2, 1000 nM	104
sgRNA knockout: sgSLC35F2, 10000 nM	65
sgRNA knockout: sgXBP1, 10 nM	88.13
sgRNA knockout: sgXBP1, 100 nM	108
sgRNA knockout: sgXBP1, 1000 nM	106
sgRNA knockout: sgXBP1, 10000 nM	70.32

CC(=O)Nc1nc(C)c(-c2ccc(Cl)c(S(=O)(=O)NCCO)c2)s1 [PIK93]
Conditions	relative cell number
sgRNA knockout: sgATF3, 10 nM	125
sgRNA knockout: sgATF3, 100 nM	124
sgRNA knockout: sgATF3, 1000 nM	83.5
sgRNA knockout: sgATF3, 10000 nM	67.9
sgRNA knockout: sgATF4, 10 nM	120
sgRNA knockout: sgATF4, 100 nM	125
sgRNA knockout: sgATF4, 1000 nM	71.8
sgRNA knockout: sgATF4, 10000 nM	59.7
sgRNA knockout: sgATF6, 10 nM	127
sgRNA knockout: sgATF6, 100 nM	100
sgRNA knockout: sgATF6, 1000 nM	85.16
sgRNA knockout: sgATF6, 10000 nM	69.6
sgRNA knockout: sgATG7, 10 nM	125
sgRNA knockout: sgATG7, 100 nM	113
sgRNA knockout: sgATG7, 1000 nM	81.9
sgRNA knockout: sgATG7, 10000 nM	67.9
sgRNA knockout: sgERN1, 10 nM	118
sgRNA knockout: sgERN1, 100 nM	118.1
sgRNA knockout: sgERN1, 1000 nM	79.9
sgRNA knockout: sgERN1, 10000 nM	63.9
sgRNA knockout: sgHSF1, 10 nM	125
sgRNA knockout: sgHSF1, 100 nM	96.3
sgRNA knockout: sgHSF1, 1000 nM	99.7
sgRNA knockout: sgHSF1, 10000 nM	71.9
sgRNA knockout: sgHSF2, 10 nM	127
sgRNA knockout: sgHSF2, 100 nM	117
sgRNA knockout: sgHSF2, 1000 nM	86.4
sgRNA knockout: sgHSF2, 10000 nM	66.6
sgRNA knockout: sgKEAP1, 10 nM	112
sgRNA knockout: sgKEAP1, 100 nM	106
sgRNA knockout: sgKEAP1, 1000 nM	85.4
sgRNA knockout: sgKEAP1, 10000 nM	76.6
sgRNA knockout: sgNFE2L2, 10 nM	130
sgRNA knockout: sgNFE2L2, 100 nM	125
sgRNA knockout: sgNFE2L2, 1000 nM	69.4
sgRNA knockout: sgNFE2L2, 10000 nM	58
sgRNA knockout: sgSLC35F2, 10 nM	115
sgRNA knockout: sgSLC35F2, 100 nM	128
sgRNA knockout: sgSLC35F2, 1000 nM	81.1
sgRNA knockout: sgSLC35F2, 10000 nM	67.8
sgRNA knockout: sgXBP1, 10 nM	127
sgRNA knockout: sgXBP1, 100 nM	125
sgRNA knockout: sgXBP1, 1000 nM	78.8
sgRNA knockout: sgXBP1, 10000 nM	66.7

— the supplement of paper PMC7661543
